Results published in article PMC6510891, “Functional duplication of Rap1 in methylotrophic yeasts”.

Experiments:
[1] = target: T1, HpRap1B (Hansenula polymorpha DL-1) (UniProt W1QDN2); assay: competition SPR; settings: score + vs PICKU surface; EMSA: 20 mM HEPES-NaOH pH 7.5, 50 mM NaCl, 0.2 mg/ml BSA, 5% glycerol, 0.1 mg/ml salmon sperm DNA, room temperature; recombinant protein; residues 1-576
T1 sequence (looked up): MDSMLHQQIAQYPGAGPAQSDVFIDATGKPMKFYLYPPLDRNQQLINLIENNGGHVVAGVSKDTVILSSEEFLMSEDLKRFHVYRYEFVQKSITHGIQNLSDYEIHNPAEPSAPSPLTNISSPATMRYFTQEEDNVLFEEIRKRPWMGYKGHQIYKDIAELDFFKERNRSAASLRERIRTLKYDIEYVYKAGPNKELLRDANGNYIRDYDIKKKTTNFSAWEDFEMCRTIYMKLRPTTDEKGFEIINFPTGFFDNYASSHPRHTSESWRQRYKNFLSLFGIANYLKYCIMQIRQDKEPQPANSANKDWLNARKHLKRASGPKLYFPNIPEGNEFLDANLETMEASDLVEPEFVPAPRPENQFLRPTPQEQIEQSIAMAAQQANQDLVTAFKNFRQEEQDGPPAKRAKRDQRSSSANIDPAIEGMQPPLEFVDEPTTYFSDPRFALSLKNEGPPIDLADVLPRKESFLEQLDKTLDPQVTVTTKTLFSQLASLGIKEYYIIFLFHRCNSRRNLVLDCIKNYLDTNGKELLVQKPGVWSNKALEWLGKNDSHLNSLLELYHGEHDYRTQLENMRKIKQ

[2] = target: T2, HpRap1A (Hansenula polymorpha DL-1) (UniProt W1Q7Z6); assay: competition SPR; settings: score + vs VIIrAbs surface; EMSA: 20 mM HEPES-NaOH pH 7.5, 50 mM NaCl, 0.2 mg/ml BSA, 5% glycerol, 0.1 mg/ml salmon sperm DNA, room temperature; recombinant protein; residues 1-613
T2 sequence (looked up): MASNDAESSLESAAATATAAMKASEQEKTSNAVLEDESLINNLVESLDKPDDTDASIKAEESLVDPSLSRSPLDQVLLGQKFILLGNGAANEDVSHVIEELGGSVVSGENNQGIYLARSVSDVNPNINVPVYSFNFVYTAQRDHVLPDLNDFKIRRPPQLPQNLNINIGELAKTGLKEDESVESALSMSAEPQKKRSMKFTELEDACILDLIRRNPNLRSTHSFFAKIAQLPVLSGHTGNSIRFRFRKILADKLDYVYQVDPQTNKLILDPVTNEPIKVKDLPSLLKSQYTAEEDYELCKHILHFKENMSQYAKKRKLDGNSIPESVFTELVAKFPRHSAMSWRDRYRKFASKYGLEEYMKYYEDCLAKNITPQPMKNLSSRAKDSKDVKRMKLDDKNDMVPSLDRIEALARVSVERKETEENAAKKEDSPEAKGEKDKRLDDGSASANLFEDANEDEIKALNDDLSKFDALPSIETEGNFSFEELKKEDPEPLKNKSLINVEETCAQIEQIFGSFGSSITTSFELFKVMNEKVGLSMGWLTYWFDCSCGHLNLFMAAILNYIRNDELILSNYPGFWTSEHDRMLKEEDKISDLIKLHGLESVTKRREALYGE

[3] = target: T2, HpRap1A (Hansenula polymorpha DL-1); assay: SPR; settings: NB in table, text: at least 30-fold lower efficiency than HpRap1B; SPR: 10 mM HEPES-NaOH pH 7.5, 150 mM NaCl, 0.5 mM DTT, 0.05% Tween 20, 1 mg/ml BSA, 0.02 mg/ml salmon sperm DNA; competition 2 nM protein with 20 or 200 nM competitor; recombinant protein; residues 1-613

Sequence	binding result [1]	further results
GGGTGGCGGGGTGGCGGGGTGGCGGGGTGGCG (double strand) [HANPO4 (competitor)]	binds more weakly	–
TGTGAGTGGTGTGAGTGGTGTGAGTGG (double strand) [PACTA]	binds more weakly	–
CTCGCTTGGTGTACGGATGCAGA (double strand) [CANMA]	binds more weakly	–
ACTTCTTGGTGTACGGATGTCTA (double strand) [CANAL (competitor)]	binds more weakly	–
GTGTGTGGGTGTGTGGGTGTGTG (double strand) [SACCE (competitor)]	–	binding result [2]: binds more weakly
GGGTGGCGGGGTGGCGGGGTGGCGGGGTGGCG / CGCCACCCCGCCACCCCGCCACCCCGCCACCCCCTCTACGTCCTCCTGCTCC [HANPO4 (SPR)]	–	binding result [3]: no binding
GTGTTGAGGTGTAGGGATGTTGA (double strand) [DEBHA]	binds more weakly	–

For some of these results: A negative result means that nothing was seen under these conditions. Where a protein sequence is shown, tags need not be part of it. For some of these results: Weaker means in comparison with the reference protein, sequence or condition of that experiment.
